For this assay, the system named is L1210 leukemia ip in BDF1 mice, survival T/C. The assay can be described thus: NCI In Vivo Anticancer Drug Screen. Data for tumor model L1210 Leukemia (intraperitoneal) in B6D2F1 (BDF1) mice. To be noted: T/C endpoint: mean survival time, higher T/C = longer survival.
Setting [1] is: dose: 100.0 mg/kg/injection, schedule: Q04DX003 (ip), vehicle: saline.
Setting [2] is: dose: 200.0 mg/kg/injection, schedule: Q04DX003 (ip), vehicle: saline.
Where [3] appears, read: dose: 400.0 mg/kg/injection, schedule: Q04DX003 (ip), vehicle: saline.
[4] abbreviates: dose: 200.0 mg/kg/injection, schedule: Q01DX001 (ip), vehicle: saline.
Setting [5] is: dose: 400.0 mg/kg/injection, schedule: Q04DX003 (ip), vehicle: saline with Tween-80.
Setting [6] is: dose: 300.0 mg/kg/injection, schedule: Q01DX001 (ip), vehicle: saline.
Where [7] appears, read: dose: 100.0 mg/kg/injection, schedule: Q04DX003 (ip), vehicle: saline with Tween-80.
The mark [8] stands for this setting: dose: 400.0 mg/kg/injection, schedule: Q01DX009 (ip), vehicle: saline with Tween-80.
Where [9] appears, read: dose: 400.0 mg/kg/injection, schedule: Q01DX001 (ip), vehicle: saline.

This is an account of results in PubChem BioAssay AID248 (DTP/NCI, 2004).

Each structure is given as a SMILES string. The list shows only some results of the screen, not a fair sample: it is rich in T/C values a quarter to a half above the control, in often repeated tests (any T/C) and in doses without a T/C. Further doses and runs are listed elsewhere. T/C gives the treated animals as a percentage of the vehicle group. Some entries give survivors of the animals treated and no T/C: the source files T/C as zero there, which appears to mark a toxic dose or a test without result, not a measured value. Some survivor counts are full or nearly so, which does not show that the dose was tolerated: survival well below the control is almost never listed, so the zero probably covers shortened survival too. Survivors were counted at the toxicity check, usually on the fifth day, unless a day is given; later deaths do not show. Schedule codes are those of the source, read here as Q, the interval in days (D) or hours (H), X, the number of doses. Some schedules carry Z or #; the key to these is not given. For survival time, this PubChem deposit counts one and a half times the control or more as active, and values a quarter to a half above the control carry no call in these data; other NCI protocols may use other cut-offs. Some doses were run more than once; their values stand side by side, smallest first. Some T/C values carry the count of animals alive at the toxicity check (mostly the fifth day); without a count, all were alive then.

`COc1cc2ccc3c(c2cc1OC)C(=O)CNC3C` (stereo not given): the survivor count was 3 of 6 (dose: 25.0 mg/kg/injection, schedule: Q04DX003 (ip), vehicle: saline); 1 of 6 (dose: 50.0 mg/kg/injection, schedule: Q04DX003 (ip), vehicle: saline); 2 of 6 under setting [1]; 0 of 6 under setting [2]; 0 of 6 under setting [3].

As for `c1ccc(CNNC2=NCCN2)cc1`, under setting [4], the survivor count is listed as 1 of 6.

Turning to `CCCCCCCCCC(=O)NO`, for the setting “dose: 400.0 mg/kg/injection, schedule: Q01DX009 (ip), vehicle: saline”, the survivor count is 4 of 4.

For the compound `COc1ccc(SC2CCCCC2OS(C)(=O)=O)cc1` (stereo not given), under “dose: 400.0 mg/kg/injection, schedule: Q01DX001 (ip), vehicle: Klucel (hydroxypropylcellulose) (HPC)”, the survivor count is listed as 2 of 6.

As for `CP1(=S)CCC(O)(c2ccccc2)CC1` (stereo not given), the survivor count runs as follows: (dose: 100.0 mg/kg/injection, schedule: Q04DX002 (ip), vehicle: saline with Tween-80) 3 of 3; (dose: 200.0 mg/kg/injection, schedule: Q04DX002 (ip), vehicle: saline with Tween-80) 3 of 3.

For the compound `CCN(CC)CCC(=O)c1cccc2c1OC(C)(C)C2`, the survivor count is, setting by setting: under setting [1], 4 of 6; under setting [2], 0 of 6; under setting [3], 0 of 6.

Consider `N#CC(C#N)=C1Cc2ccccc2C1`, for which the survivor count reads like this: (dose: 200.0 mg/kg/injection, schedule: Q04DX003 (ip), vehicle: saline with Tween-80) 2 of 6; under setting [5], 2 of 6.

Take `O=C(N/N=C\c1ccc(Cl)cc1)c1ccccc1`: the survivor count under setting [5] is 3 of 6.

With `CCN(CC)CCNC(c1ccc(OC)cc1)C(Cl)(Cl)Cl` (stereo not given), the survivor count under setting [6] is recorded as 0 of 6.

As to `Nc1ccc(CCc2[nH]c(N)nc(=S)c2-c2ccc(Cl)cc2)cc1`, under setting [7], the survivor count is 6 of 6.

As to `Cc1cc([N+](=O)[O-])cc(Br)c1N`, the T/C under setting [7] is 135 % of control.

With `CCN=C(c1ccc(NC(=O)c2ccc(C(=O)Nc3ccc(C(=NCC)N(CC)C(=O)NCCCCl)cc3)cc2)cc1)N(CC)C(=O)NCCCCl`, the T/C is 131 % of control (dose: 3.75 mg/kg/injection, schedule: Q01DX015 (ip), vehicle: methylcellulose (MC)); 138 % of control (dose: 4.0 mg/kg/injection, schedule: Q01DX015 (ip), vehicle: methylcellulose (MC)); 129 % of control [5 of 6 alive] (dose: 7.5 mg/kg/injection, schedule: Q01DX015 (ip), vehicle: methylcellulose (MC)). The survivor count (dose: 15.0 mg/kg/injection, schedule: Q01DX015 (ip), vehicle: methylcellulose (MC)) is 0 of 6; the survivor count (dose: 30.0 mg/kg/injection, schedule: Q01DX015 (ip), vehicle: methylcellulose (MC)) is 0 of 6; the survivor count (dose: 62.5 mg/kg/injection, schedule: Q01DX015 (ip), vehicle: methylcellulose (MC)) is reported as 0 of 6; the survivor count (dose: 125.0 mg/kg/injection, schedule: Q01DX015 (ip), vehicle: methylcellulose (MC)) was 0 of 6; the survivor count (dose: 250.0 mg/kg/injection, schedule: Q01DX015 (ip), vehicle: methylcellulose (MC)) is 0 of 6; the survivor count (dose: 500.0 mg/kg/injection, schedule: Q01DX015 (ip), vehicle: methylcellulose (MC)) was 0 of 6.

Regarding `Cc1cccc(N=Cc2ccc(Cl)cc2Cl)c1C`, the survivor count (dose: 400.0 mg/kg/injection, schedule: Q01DX009 (ip), vehicle: alcohol) is on record as 5 of 6.

Consider `Fc1cccc2ccccc12`, for which, under setting [8], the survivor count is 2 of 6.

As for `COc1ccc(NC(=O)N(CCCl)N=O)cc1`, the T/C is 131 % of control (dose: 2.5 mg/kg/injection, schedule: Q01DX Z (ip), vehicle: carboxymethylcellulose (CMC)); 144 % of control (dose: 10.0 mg/kg/injection, schedule: Q01DX Z (ip), vehicle: carboxymethylcellulose (CMC)); 141 % of control (dose: 15.0 mg/kg/injection, schedule: Q01DX001 (ip), vehicle: saline); 146 % of control (dose: 15.0 mg/kg/injection, schedule: Q01DX Z (ip), vehicle: carboxymethylcellulose (CMC)); 126 % of control (dose: 22.0 mg/kg/injection, schedule: Q01DX015 (ip), vehicle: saline); 146 % of control [9 of 10 alive] (dose: 30.0 mg/kg/injection, schedule: Q01DX001 (ip), vehicle: saline). The survivor count was 6 of 6 (dose: 22.0 mg/kg/injection, schedule: Q01DX Z (ip), vehicle: carboxymethylcellulose (CMC)) and 9 of 10 (dose: 158.4 mg/kg/injection, schedule: Q01DX001 (ip), vehicle: carboxymethylcellulose (CMC)).

Take `c1ccc(CC2NCCc3ccccc32)cc1` (stereo not given): the survivor count (dose: 200.0 mg/kg/injection, schedule: Q01DX001 (ip), vehicle: acetone) was 3 of 6 and the survivor count (dose: 400.0 mg/kg/injection, schedule: Q01DX001 (ip), vehicle: acetone) is reported as 0 of 6.

`c1ccc([Si]2(c3ccccc3)O[Si](c3ccccc3)(c3ccccc3)O[Si](c3ccccc3)(c3ccccc3)O2)cc1`: the survivor count under setting [6] was 6 of 6.

Turning to `Cc1cccc(CCSCCc2cccc(C)[n+]2[O-])[n+]1[O-]`, the survivor count under setting [9] was 2 of 6.

Consider `CC1=C/C(=N/Nc2ccc([N+](=O)[O-])cc2[N+](=O)[O-])CCC1`, for which, for the setting “dose: 200.0 mg/kg/injection, schedule: Q01DX009 (ip), vehicle: acetone”, the survivor count is 4 of 6.

As to `CCN(CC)CCOc1ccccc1-c1nc2ccccc2s1`, the survivor count reads like this: (dose: 200.0 mg/kg/injection, schedule: Q01DX009 (ip), vehicle: Klucel (hydroxypropylcellulose) (HPC)) 1 of 6; (dose: 400.0 mg/kg/injection, schedule: Q01DX009 (ip), vehicle: Klucel (hydroxypropylcellulose) (HPC)) 0 of 6.

For the compound `O=CC(O)C(O)C(O)C(O)COP(=O)(O)O` (stereo not given), the survivor count reads like this: under setting [1], 5 of 6; under setting [2], 3 of 6; under setting [3], 1 of 6.

Turning to `CSc1ccc(NC(=O)NS(=O)(=O)c2ccc(C)cc2)cc1`, the survivor count under setting [8] is recorded as 6 of 6.

In the case of `OC1CC2C3CCC(C3)C2C1O` (stereo not given), the survivor count under setting [5] is listed as 6 of 6.

Take `CN(CO)c1nc(N(C)CO)nc(N(C)CO)n1`: the T/C (dose: 50.0 mg/kg/injection, schedule: Q01DX009 (ip), vehicle: saline) is 140 % of control.

Take `CN(CCc1ccccc1)/N=N/c1nc[nH]c1C(N)=O`: the T/C runs as follows: (dose: 75.0 mg/kg/injection, schedule: Q01DX009 (ip), vehicle: saline with Tween-80) 144 % of control; (dose: 264.0 mg/kg/injection, schedule: Q04DX003 (ip), vehicle: saline with Tween-80) 128 and 148 % of control; under setting [5], 133 % of control.

In the case of `COc1cc(N(CCCl)CCCl)c(OC)cc1/C=N\NC(=O)CN(C)C`, the T/C is 135 % of control (dose: 50.0 mg/kg/injection, schedule: Q01DX001 (ip), vehicle: saline); 135 % of control (dose: 66.6 mg/kg/injection, schedule: Q01DX001 (ip), vehicle: saline); 149 % of control (dose: 100.0 mg/kg/injection, schedule: Q01DX001 (ip), vehicle: saline). Besides, the survivor count by setting is: (dose: 50.0 mg/kg/injection, schedule: Q01DX015 (ip), vehicle: saline) 6 of 6; (dose: 72.0 mg/kg/injection, schedule: Q01DX015 (ip), vehicle: saline) 6 of 6; (dose: 100.0 mg/kg/injection, schedule: Q01DX015 (ip), vehicle: saline) 0 of 6; under setting [4], 0 of 4; under setting [9], 0 of 4.

As to `CC(=O)OC1CCC2(C)C(CCC3C4CC=C(C(C)=O)C4(C)OC(=O)CC32)C1` (stereo not given), the survivor count (dose: 75.0 mg/kg/injection, schedule: Q01DX009 (ip), vehicle: carboxymethylcellulose (CMC)) is 6 of 6; the survivor count (dose: 150.0 mg/kg/injection, schedule: Q01DX009 (ip), vehicle: carboxymethylcellulose (CMC)) is 2 of 6; the survivor count (dose: 300.0 mg/kg/injection, schedule: Q01DX009 (ip), vehicle: carboxymethylcellulose (CMC)) was 1 of 6.
